US20210324059A1
These are yes or no findings as the source states them, for the method shown. Some results given as binding are weak or reduced against the parent protein; the word gives no strength. Where a sequence is shown, tags or fusion partners need not be part of it.

How the values were obtained:
human Loricrin (human) [1] = biological target: T1, human Loricrin (human) (UniProt P23490); experiment: quality control ELISA, chimeric human/mouse IgG1 on immobilized Loricrin, signal over background
T1 sequence: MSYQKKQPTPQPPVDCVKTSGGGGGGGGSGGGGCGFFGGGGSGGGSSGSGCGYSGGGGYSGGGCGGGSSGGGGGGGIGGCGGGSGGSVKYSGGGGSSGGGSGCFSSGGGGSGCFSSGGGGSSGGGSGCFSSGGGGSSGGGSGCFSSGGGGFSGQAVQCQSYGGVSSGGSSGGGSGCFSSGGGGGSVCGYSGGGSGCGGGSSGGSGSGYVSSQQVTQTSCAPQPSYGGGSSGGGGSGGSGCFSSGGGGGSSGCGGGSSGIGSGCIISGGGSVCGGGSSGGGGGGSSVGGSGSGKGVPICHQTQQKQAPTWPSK

human Loricrin (human) [2] = biological target: T1, human Loricrin (human); experiment: automated immunohistochemistry, fast red chromogen

B1: full length chimeric antibody AbD33047 with an IgG1 mouse Fc region (antibody, V domains shown)
VH: QVQLVQSGAEVKKPGASVKVSCKASGYTFNDYYIHWVRQAPGQGLEWMGVISPNSGKTNYAQKFQGRVTMTRDTSISTAYMELSRLRSEDTAVYYCARDLYPDSSAFDIWGQGTLVTVSS
VL: DIELTQPPSVSVSPGQTASITCSGDNLGDKYAHWYQQKPGQAPVLVIYDDNERPSGIPERFSGSNSGNTATLTISGTQAEDEADYYCQSYDSGNRVFGGGTKLTVLG
binding (human Loricrin (human) [1]): binds | binding (human Loricrin (human) [2]): binds
